Source: the supplement of paper PMC10849652
Some of the results follow.

Chains of the proteins cited; added tags and fusions are not shown. Lines headed by an entry give the natural chain unless they say otherwise; changes in a name come on top.
UniProt O14653: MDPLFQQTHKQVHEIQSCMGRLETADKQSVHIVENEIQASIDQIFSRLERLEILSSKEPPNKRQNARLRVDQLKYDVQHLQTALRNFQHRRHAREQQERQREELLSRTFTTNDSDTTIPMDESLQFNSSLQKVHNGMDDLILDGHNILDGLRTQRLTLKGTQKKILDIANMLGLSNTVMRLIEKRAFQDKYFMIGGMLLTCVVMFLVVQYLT
UniProt P43304: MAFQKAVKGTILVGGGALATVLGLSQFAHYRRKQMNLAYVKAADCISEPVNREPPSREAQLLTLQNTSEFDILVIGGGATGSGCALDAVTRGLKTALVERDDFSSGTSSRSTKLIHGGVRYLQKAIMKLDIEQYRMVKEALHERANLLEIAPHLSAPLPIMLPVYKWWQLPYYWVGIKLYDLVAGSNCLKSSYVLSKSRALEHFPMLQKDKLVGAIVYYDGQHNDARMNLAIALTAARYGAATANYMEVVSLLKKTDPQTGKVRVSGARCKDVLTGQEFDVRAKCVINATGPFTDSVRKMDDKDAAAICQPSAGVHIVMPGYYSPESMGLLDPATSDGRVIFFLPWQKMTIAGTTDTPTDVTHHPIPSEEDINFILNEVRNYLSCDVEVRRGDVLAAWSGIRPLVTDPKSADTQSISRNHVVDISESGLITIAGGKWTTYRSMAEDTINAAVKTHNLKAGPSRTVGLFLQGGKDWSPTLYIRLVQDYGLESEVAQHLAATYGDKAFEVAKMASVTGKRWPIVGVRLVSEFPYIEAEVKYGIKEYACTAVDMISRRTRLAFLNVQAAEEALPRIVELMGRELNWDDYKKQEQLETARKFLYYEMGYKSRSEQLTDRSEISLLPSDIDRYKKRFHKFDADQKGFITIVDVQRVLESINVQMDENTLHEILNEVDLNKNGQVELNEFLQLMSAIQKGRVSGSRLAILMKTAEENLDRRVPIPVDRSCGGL
UniProt Q9Y248: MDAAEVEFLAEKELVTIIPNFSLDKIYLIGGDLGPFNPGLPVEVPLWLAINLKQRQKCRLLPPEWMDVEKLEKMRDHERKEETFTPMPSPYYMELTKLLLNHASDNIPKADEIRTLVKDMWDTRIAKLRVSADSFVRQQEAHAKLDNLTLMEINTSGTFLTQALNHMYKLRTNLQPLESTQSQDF
UniProt O14908: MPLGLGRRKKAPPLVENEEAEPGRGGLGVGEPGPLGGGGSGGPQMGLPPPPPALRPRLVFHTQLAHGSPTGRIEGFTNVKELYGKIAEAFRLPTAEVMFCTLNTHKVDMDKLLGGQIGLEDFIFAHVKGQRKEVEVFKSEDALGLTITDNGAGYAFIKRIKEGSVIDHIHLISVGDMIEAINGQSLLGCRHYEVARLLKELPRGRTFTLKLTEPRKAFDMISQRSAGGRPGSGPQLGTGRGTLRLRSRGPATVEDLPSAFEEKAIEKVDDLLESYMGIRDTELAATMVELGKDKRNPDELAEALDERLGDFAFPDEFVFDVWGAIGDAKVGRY
UniProt Q6Y7W6: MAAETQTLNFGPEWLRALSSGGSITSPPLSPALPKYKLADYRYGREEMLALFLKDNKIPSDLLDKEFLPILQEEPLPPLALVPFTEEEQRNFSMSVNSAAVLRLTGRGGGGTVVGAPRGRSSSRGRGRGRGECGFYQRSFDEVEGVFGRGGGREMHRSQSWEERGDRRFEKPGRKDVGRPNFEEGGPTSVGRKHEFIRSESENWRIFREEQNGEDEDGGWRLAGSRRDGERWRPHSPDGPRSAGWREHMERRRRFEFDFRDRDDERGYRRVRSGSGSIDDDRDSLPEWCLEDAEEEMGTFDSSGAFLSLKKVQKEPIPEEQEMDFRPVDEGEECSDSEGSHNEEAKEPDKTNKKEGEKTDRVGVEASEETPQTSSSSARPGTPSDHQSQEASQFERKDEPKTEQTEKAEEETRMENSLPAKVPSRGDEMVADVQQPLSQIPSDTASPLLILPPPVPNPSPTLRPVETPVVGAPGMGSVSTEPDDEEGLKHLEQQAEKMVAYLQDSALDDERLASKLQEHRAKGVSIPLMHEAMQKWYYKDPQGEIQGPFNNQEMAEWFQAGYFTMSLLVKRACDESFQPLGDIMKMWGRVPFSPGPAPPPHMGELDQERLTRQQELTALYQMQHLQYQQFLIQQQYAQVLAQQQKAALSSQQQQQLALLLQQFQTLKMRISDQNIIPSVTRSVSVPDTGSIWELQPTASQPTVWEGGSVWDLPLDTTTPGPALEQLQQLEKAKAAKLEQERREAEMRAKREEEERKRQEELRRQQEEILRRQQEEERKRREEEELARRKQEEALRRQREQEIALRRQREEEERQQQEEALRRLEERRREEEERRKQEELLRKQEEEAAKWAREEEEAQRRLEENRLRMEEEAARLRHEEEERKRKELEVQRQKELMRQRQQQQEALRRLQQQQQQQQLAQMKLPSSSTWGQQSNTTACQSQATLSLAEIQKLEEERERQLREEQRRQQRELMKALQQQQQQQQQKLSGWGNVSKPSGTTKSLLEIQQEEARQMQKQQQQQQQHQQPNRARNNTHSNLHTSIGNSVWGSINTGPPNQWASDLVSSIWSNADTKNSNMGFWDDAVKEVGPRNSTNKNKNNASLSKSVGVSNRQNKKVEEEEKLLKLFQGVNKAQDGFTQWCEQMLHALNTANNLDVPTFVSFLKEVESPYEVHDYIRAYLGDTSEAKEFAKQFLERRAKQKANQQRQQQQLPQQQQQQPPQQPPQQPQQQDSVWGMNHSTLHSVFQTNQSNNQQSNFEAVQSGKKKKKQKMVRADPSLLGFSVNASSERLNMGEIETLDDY
UniProt Q8TDQ7: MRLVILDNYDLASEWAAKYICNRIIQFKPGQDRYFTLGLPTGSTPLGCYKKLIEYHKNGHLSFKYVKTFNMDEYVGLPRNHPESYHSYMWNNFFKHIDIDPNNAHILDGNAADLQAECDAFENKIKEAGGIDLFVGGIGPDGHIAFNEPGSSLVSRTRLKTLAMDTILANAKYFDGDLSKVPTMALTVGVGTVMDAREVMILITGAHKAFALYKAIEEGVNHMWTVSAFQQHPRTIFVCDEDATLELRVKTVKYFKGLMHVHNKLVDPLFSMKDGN
UniProt P08754, whole entry, looked up: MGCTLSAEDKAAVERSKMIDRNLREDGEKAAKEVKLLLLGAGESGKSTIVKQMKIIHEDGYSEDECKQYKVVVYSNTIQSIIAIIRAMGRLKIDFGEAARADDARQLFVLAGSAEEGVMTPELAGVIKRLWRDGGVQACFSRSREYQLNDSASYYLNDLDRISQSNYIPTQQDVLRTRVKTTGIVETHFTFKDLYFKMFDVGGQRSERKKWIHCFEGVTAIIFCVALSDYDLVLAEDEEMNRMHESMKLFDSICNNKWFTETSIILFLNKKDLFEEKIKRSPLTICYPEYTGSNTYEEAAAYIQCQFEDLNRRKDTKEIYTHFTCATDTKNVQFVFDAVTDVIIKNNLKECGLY
UniProt O00461: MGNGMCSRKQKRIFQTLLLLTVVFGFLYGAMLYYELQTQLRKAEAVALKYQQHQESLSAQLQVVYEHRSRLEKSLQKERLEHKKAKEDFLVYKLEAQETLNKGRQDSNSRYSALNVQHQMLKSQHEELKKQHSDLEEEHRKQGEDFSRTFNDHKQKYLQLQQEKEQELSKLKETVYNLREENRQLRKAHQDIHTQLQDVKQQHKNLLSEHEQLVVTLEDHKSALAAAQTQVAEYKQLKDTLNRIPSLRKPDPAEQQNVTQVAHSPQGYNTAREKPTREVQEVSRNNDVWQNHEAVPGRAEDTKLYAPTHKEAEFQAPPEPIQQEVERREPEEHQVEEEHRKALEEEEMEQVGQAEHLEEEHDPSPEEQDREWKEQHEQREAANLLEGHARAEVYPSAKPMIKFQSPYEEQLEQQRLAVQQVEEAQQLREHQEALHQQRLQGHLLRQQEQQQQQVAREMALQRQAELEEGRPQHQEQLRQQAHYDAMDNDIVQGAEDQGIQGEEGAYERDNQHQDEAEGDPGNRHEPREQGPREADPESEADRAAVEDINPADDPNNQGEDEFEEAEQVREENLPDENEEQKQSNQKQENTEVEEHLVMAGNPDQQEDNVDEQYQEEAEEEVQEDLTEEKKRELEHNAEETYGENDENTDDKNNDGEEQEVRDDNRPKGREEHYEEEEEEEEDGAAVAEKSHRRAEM
UniProt Q9HCN4, whole entry, looked up: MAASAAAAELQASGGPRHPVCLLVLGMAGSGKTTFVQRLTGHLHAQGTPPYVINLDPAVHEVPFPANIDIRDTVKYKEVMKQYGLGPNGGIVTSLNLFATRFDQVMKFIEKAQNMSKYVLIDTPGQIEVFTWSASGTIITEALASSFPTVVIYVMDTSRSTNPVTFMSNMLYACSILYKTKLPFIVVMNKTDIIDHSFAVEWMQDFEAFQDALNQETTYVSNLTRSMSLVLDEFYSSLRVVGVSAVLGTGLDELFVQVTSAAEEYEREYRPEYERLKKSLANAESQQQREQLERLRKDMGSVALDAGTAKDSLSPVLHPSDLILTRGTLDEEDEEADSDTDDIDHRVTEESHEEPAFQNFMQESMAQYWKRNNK
UniProt P46926: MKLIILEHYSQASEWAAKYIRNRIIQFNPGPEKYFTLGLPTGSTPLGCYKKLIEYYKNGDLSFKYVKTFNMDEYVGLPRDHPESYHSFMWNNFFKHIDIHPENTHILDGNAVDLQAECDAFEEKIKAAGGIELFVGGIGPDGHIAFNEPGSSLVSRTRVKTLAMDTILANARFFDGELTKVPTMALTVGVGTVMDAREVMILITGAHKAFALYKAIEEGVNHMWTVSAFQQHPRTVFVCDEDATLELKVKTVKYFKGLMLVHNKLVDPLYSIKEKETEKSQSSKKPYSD
UniProt Q9BYB4: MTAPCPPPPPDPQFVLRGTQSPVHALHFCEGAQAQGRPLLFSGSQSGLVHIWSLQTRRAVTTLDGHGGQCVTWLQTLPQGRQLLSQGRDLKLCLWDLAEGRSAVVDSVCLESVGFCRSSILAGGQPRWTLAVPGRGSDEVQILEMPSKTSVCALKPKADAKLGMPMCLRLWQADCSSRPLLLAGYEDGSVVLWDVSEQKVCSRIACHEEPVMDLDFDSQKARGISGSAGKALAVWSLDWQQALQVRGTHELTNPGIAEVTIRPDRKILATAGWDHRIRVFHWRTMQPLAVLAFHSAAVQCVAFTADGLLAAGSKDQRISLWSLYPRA
UniProt Q9UKD1: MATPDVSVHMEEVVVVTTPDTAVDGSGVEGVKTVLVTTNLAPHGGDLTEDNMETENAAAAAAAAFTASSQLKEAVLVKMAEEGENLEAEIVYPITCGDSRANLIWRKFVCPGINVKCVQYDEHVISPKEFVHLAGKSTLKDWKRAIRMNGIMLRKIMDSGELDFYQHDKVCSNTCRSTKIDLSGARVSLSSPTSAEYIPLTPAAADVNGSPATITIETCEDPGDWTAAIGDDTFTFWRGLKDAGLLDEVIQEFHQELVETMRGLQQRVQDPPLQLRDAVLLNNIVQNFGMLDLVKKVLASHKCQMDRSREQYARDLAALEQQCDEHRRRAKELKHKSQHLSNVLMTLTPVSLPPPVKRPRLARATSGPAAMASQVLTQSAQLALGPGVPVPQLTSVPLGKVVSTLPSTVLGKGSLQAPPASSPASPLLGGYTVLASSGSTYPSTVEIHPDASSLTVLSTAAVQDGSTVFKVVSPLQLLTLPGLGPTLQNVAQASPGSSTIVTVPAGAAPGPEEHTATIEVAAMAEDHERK
UniProt Q9UJJ9: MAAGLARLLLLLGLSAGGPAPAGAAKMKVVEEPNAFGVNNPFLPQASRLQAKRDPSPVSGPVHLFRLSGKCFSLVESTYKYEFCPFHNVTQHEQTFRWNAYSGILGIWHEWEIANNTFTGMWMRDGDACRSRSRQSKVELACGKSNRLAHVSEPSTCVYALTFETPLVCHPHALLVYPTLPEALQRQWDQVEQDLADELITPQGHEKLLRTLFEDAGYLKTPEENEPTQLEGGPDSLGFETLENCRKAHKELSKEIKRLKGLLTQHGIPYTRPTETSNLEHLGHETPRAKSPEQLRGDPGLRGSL
UniProt Q8N954: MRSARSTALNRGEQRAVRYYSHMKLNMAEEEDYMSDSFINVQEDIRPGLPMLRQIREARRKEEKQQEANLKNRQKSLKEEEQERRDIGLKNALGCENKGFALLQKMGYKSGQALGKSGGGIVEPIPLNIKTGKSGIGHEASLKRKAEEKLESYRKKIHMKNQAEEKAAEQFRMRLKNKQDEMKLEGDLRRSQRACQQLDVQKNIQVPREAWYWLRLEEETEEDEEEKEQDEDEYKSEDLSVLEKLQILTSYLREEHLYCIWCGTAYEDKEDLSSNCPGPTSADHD
UniProt Q9HAV7: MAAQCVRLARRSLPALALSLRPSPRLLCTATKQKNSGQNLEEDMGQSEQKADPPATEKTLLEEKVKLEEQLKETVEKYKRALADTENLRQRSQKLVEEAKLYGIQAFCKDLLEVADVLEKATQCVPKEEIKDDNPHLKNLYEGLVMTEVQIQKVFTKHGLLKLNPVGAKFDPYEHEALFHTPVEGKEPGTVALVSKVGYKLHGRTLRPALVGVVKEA
UniProt Q96EK6: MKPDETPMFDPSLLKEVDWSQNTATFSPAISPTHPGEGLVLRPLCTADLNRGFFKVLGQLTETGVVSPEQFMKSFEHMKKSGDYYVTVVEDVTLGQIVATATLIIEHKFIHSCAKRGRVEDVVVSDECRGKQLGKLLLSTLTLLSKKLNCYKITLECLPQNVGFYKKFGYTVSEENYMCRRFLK

Experiments:
Assay in all cases: log2 fold change, soluble protein after heating vs DMSO (PISA); higher = thermal stabilisation; K562 cells, 10 uM, 30 min; active = over 0.2 and 3.5 SD of the protein, either way, in both replicates (recomputed)
bafetinib = compound: Cc1ccc(NC(=O)c2ccc(CN3CC[C@H](N(C)C)C3)c(C(F)(F)F)c2)cc1Nc1nccc(-c2cncnc2)n1 [bafetinib]
How it was run: (§1)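 K562 cells at 2×10^6 cells/mL were given 10 μM compound for 30 min. Aliquots then went through 3 min of heating across 48°C-58°C, were pooled, and were extracted in PBS with 0.5% NP-40 at 4°C, and the supernatant after 21,000xg for 90 min was quantified by TMTpro 16plex LC-MS/MS with channel sums equalised. Thermal stability relative to control samples, from duplicates, is given as log2 fold change.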

[1] = compound: Cc1cccc(CC(=O)N2CCc3c2ccc(-c2cn(C)c4ncnc(N)c24)c3F)n1
How it was run: as §1

nilotinib = compound: Cc1cn(-c2cc(NC(=O)c3ccc(C)c(Nc4nccc(-c5cccnc5)n4)c3)cc(C(F)(F)F)c2)cn1 [nilotinib]
How it was run: as §1

[2] = compound: Cc1nc(Nc2n[nH]c3c2CN(C(=O)N[C@H](CN(C)C)c2ccccc2)C3(C)C)c2sccc2n1
How it was run: as §1

dasatinib = compound: Cc1nc(Nc2ncc(C(=O)Nc3c(C)cccc3Cl)s2)cc(N2CCN(CCO)CC2)n1 [dasatinib]
How it was run: as §1

[3] = compound: Cc1ncc(-c2ccnc(Nc3ccc(S(C)(=O)=O)cc3)n2)n1C(C)C
How it was run: as §1

[4] = compound: Cn1cc(-c2ccc3c(c2)CCN3C(=O)Cc2cccc(C(F)(F)F)c2)c2c(N)ncnc21
How it was run: as §1

[5] = compound: Cn1cc(-c2ccc3nnc(C(F)(F)c4ccc5ncccc5c4)n3n2)cn1
How it was run: as §1

tipifarnib = compound: Cn1cncc1[C@@](N)(c1ccc(Cl)cc1)c1ccc2c(c1)c(-c1cccc(Cl)c1)cc(=O)n2C [tipifarnib]
How it was run: as §1

mubritinib = compound: FC(F)(F)c1ccc(/C=C/c2nc(COc3ccc(CCCCn4ccnn4)cc3)co2)cc1 [mubritinib]
How it was run: as §1

Row | Target | log2 fold change (bafetinib) | log2 fold change [1] | log2 fold change (nilotinib) | log2 fold change [2] | log2 fold change (dasatinib) | log2 fold change [3] | log2 fold change [4] | log2 fold change [5] | log2 fold change (tipifarnib) | log2 fold change (mubritinib)
1 | GOPC (UniProt Q9HD26) | inactive: 0.233 | inactive: -0.131 | inactive: 0.009 | inactive: 0.05 | inactive: -0.081 | inactive: 0.021 | inactive: -0.005 | inactive: -0.02 | inactive: 0.127 | inactive: -0.226
2 | GOSR2 isoform 2 (UniProt O14653) | inactive: -0.09 | inactive: 0.087 | inactive: -0.011 | inactive: -0.06 | inactive: -0.065 | inactive: 0.032 | inactive: 0.036 | inactive: 0.053 | inactive: -0.08 | inactive: 0.099
3 | GPD2 (UniProt P43304) | inactive: -0.038 | inactive: -0.057 | inactive: 0 | inactive: -0.002 | inactive: 0.023 | inactive: -0.002 | inactive: 0.002 | inactive: 0 | inactive: 0.039 | inactive: 0.028
4 | GPHN isoform 2 (UniProt Q9NQX3) | inactive: -0.03 | inactive: -0.034 | inactive: 0.018 | inactive: 0 | inactive: 0.028 | inactive: -0.004 | inactive: 0.017 | inactive: 0.007 | inactive: 0.01 | inactive: 0.038
5 | GINS2 (UniProt Q9Y248) | inactive: -0.025 | inactive: 0.106 | inactive: -0.024 | inactive: -0.031 | inactive: -0.265 | inactive: 0.03 | inactive: -0.057 | inactive: -0.111 | inactive: -0.064 | inactive: 0.03
6 | GNAS (UniProt Q5JWF2) | inactive: 0.129 | inactive: -0.001 | inactive: 0.103 | inactive: -0.02 | inactive: 0.064 | inactive: 0.005 | inactive: 0.029 | inactive: 0.031 | inactive: 0.005 | inactive: -0.035
7 | GIPC1 (UniProt O14908) | inactive: -0.012 | inactive: 0.006 | inactive: 0.012 | inactive: -0.074 | inactive: -0.082 | inactive: 0.038 | inactive: 0.028 | inactive: 0.048 | inactive: -0.045 | inactive: 0.045
8 | GOT2 (UniProt P00505) | inactive: -0.034 | inactive: -0.034 | inactive: 0.009 | inactive: 0.006 | inactive: 0.022 | inactive: -0.02 | inactive: 0.018 | inactive: 0.02 | inactive: 0.033 | inactive: 0.005
9 | GIGYF2 (UniProt Q6Y7W6) | inactive: -0.076 | inactive: 0.045 | inactive: -0.161 | inactive: -0.105 | inactive: -0.22 | inactive: -0.023 | inactive: 0.054 | inactive: -0.025 | inactive: -0.119 | inactive: -0.03
10 | GPAA1 (UniProt O43292) | inactive: -0.047 | inactive: 0.055 | inactive: -0.018 | inactive: 0.034 | inactive: -0.02 | inactive: -0.04 | inactive: 0.01 | inactive: 0.028 | inactive: -0.039 | inactive: -0.001
11 | GNPDA2 (UniProt Q8TDQ7) | inactive: 0.007 | inactive: 0.051 | inactive: 0.085 | inactive: 0.033 | inactive: 0.089 | inactive: 0.021 | inactive: 0.089 | inactive: 0.07 | inactive: -0.022 | inactive: 0.026
12 | GNAI3 (UniProt P08754) | inactive: 0.066 | inactive: 0.033 | inactive: 0.185 | inactive: 0.008 | inactive: 0.086 | inactive: -0.004 | inactive: -0.017 | inactive: 0.018 | inactive: -0.008 | inactive: -0.032
13 | GOLIM4 (UniProt O00461) | inactive: -0.032 | inactive: -0.062 | inactive: 0.016 | inactive: -0.063 | inactive: 0.049 | inactive: 0.016 | inactive: 0.006 | inactive: 0.018 | inactive: 0.018 | inactive: 0.024
14 | GINS3 (UniProt Q9BRX5) | inactive: 0 | inactive: -0.035 | inactive: 0.011 | inactive: -0.059 | inactive: -0.091 | inactive: -0.028 | inactive: 0.047 | inactive: 0.031 | inactive: -0.036 | inactive: 0.084
15 | GPN1 isoform 5 (UniProt Q9HCN4) | inactive: -0.027 | inactive: -0.027 | inactive: 0.065 | inactive: 0.02 | inactive: -0.018 | inactive: -0.041 | inactive: 0.045 | inactive: -0.051 | inactive: -0.032 | inactive: 0.056
16 | GNPDA1 (UniProt P46926) | inactive: -0.044 | inactive: -0.018 | inactive: 0.005 | inactive: 0.012 | inactive: 0.049 | inactive: -0.023 | inactive: -0.013 | inactive: 0.009 | inactive: 0.022 | inactive: 0.047
17 | GNB1L (UniProt Q9BYB4) | inactive: -0.03 | inactive: -0.006 | inactive: -0.019 | inactive: -0.004 | inactive: 0.026 | inactive: -0.023 | inactive: 0.048 | inactive: 0.035 | inactive: -0.018 | inactive: 0.037
18 | GRAP2 (UniProt O75791) | inactive: 0.195 | inactive: 0.088 | inactive: 0.034 | inactive: -0.112 | inactive: -0.141 | inactive: -0.006 | inactive: 0 | inactive: -0.027 | inactive: -0.043 | inactive: 0.054
19 | GPKOW (UniProt Q92917) | inactive: -0.025 | inactive: 0.086 | inactive: -0.057 | inactive: -0.207 | active: -0.326 | inactive: -0.025 | inactive: 0.114 | inactive: 0.139 | inactive: -0.071 | inactive: 0.126
20 | GMEB2 (UniProt Q9UKD1) | inactive: 0.019 | inactive: 0.013 | inactive: 0.019 | inactive: -0.021 | inactive: -0.036 | inactive: -0.05 | inactive: -0.084 | inactive: -0.006 | inactive: -0.011 | inactive: -0.041
21 | GNPTG (UniProt Q9UJJ9) | inactive: -0.067 | inactive: -0.037 | inactive: 0.041 | inactive: -0.003 | inactive: 0.062 | inactive: -0.013 | inactive: -0.129 | inactive: 0.064 | – | inactive: -0.008
22 | GOLGA2 (UniProt Q08379) | inactive: -0.009 | inactive: -0.023 | inactive: -0.068 | inactive: -0.06 | inactive: 0.072 | inactive: 0.041 | inactive: -0.112 | inactive: -0.104 | inactive: 0.043 | inactive: -0.085
23 | GPBP1 isoform 2 (UniProt Q86WP2) | inactive: -0.001 | inactive: -0.052 | inactive: 0.057 | inactive: -0.081 | inactive: 0.042 | inactive: -0.02 | inactive: -0.004 | inactive: -0.025 | inactive: 0.061 | inactive: 0.027
24 | GRWD1 (UniProt Q9BQ67) | inactive: 0.133 | inactive: 0.021 | inactive: -0.009 | inactive: 0.016 | inactive: 0.21 | inactive: -0.034 | inactive: -0.264 | inactive: -0.169 | inactive: 0.147 | inactive: -0.068
25 | GPATCH11 (UniProt Q8N954) | inactive: -0.017 | inactive: 0.066 | inactive: -0.013 | inactive: 0.019 | inactive: 0.005 | inactive: 0.058 | inactive: -0.056 | inactive: -0.006 | inactive: 0.022 | inactive: 0
26 | GRPEL1 (UniProt Q9HAV7) | inactive: -0.029 | inactive: 0.002 | inactive: -0.001 | inactive: 0.016 | inactive: 0.011 | inactive: -0.01 | inactive: 0.023 | inactive: 0.057 | inactive: -0.012 | inactive: -0.021
27 | GOLGA4 isoform 5 (UniProt Q13439) | inactive: -0.221 | inactive: 0.098 | inactive: -0.228 | inactive: -0.046 | inactive: -0.017 | inactive: -0.06 | inactive: -0.109 | inactive: 0.08 | inactive: 0.041 | inactive: 0.033
28 | GNPNAT1 (UniProt Q96EK6) | inactive: -0.014 | inactive: -0.074 | inactive: 0.028 | inactive: 0.014 | inactive: 0.028 | inactive: -0.018 | inactive: 0.079 | inactive: 0.032 | inactive: -0.019 | inactive: 0.013
29 | GOLGA7 (UniProt Q7Z5G4) | inactive: 0.008 | inactive: -0.117 | inactive: 0.062 | inactive: -0.035 | inactive: -0.055 | inactive: 0.072 | inactive: 0.066 | – | inactive: 0.012 | inactive: 0.002
30 | GPAA1 (UniProt E9PLG8) | inactive: -0.001 | inactive: -0.049 | inactive: -0.159 | inactive: -0.167 | inactive: 0.039 | inactive: 0.033 | inactive: -0.093 | – | – | inactive: 0.082

Complete entries as entered above. Values in the order: log2 fold change (bafetinib) | log2 fold change [1] | log2 fold change (nilotinib) | log2 fold change [2] | log2 fold change (dasatinib) | log2 fold change [3] | log2 fold change [4] | log2 fold change [5] | log2 fold change (tipifarnib) | log2 fold change (mubritinib)
GPAA1 (UniProt O43292) is entered as inactive: -0.047 | inactive: 0.055 | inactive: -0.018 | inactive: 0.034 | inactive: -0.02 | inactive: -0.04 | inactive: 0.01 | inactive: 0.028 | inactive: -0.039 | inactive: -0.001
GNPDA2 (UniProt Q8TDQ7) is entered as inactive: 0.007 | inactive: 0.051 | inactive: 0.085 | inactive: 0.033 | inactive: 0.089 | inactive: 0.021 | inactive: 0.089 | inactive: 0.07 | inactive: -0.022 | inactive: 0.026
